Assay results from paper PMC4861493, “Functional Evolution in Orthologous Cell-encoded RNA-dependent RNA Polymerases*” (The Journal of Biological Chemistry, 2016).
For at least one entry, the source does not settle the construct or the ends of the probe. For part of these data: At least one verdict was read from the data and is not stated in words by the source. Tags and fusion partners may be left off the protein sequences shown.

Legend:
[1] = target: T1, QDE-1Tte catalytic fragment (Thielavia terrestris) (UniProt G2R911); experiment: negative-stain EM; details: 5 mM Mg2+ (dilution buffer), 1.3 uM protein, 1.7 uM DNA, ssDNA density not unambiguously assigned at 20 A; recombinant protein; protein details: His tag, TEV cleavage site; single-stranded DNA
T1 sequence (looked up, limits assumed): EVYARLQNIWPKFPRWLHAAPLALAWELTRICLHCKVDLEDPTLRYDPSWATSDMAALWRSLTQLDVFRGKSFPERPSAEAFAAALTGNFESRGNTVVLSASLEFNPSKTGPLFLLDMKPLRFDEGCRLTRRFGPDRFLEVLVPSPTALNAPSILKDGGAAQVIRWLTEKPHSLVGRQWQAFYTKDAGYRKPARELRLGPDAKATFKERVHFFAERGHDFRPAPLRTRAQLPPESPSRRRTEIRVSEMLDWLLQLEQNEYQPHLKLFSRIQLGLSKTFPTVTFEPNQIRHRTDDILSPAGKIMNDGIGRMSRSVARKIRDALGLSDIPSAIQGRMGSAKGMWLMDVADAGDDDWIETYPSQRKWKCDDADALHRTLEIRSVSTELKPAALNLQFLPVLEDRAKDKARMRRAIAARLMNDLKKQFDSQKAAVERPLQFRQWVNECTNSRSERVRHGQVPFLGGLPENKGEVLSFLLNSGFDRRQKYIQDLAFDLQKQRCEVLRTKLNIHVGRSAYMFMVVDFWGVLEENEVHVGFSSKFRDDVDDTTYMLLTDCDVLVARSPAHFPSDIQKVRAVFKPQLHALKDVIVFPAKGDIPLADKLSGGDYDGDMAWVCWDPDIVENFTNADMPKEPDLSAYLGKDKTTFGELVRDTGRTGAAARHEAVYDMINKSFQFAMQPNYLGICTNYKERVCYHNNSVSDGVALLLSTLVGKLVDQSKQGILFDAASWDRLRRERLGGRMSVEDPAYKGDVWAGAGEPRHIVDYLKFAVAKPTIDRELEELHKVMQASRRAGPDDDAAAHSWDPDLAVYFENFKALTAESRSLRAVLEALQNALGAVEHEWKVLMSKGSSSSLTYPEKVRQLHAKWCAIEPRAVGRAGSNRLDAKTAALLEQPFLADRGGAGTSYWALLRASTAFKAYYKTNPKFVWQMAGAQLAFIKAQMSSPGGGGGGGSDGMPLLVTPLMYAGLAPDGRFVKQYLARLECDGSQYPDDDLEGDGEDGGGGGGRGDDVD

[2] = target: T2, QDE-1Ncr catalytic fragment (QDE-1ΔN) (Neurospora crassa) (UniProt Q1K6C4); experiment: filter binding; details: 2 mM Mg2+, apparent Kd determined but value not in the text; Filter binding: 50 mM HEPES-NaOH pH 7.8, 0.1 mM EDTA, 2% (v/v) Triton X-100, 100 mM NH4OAc, 2 mM MgCl2, 1 uM protein, 0.03-10 uM ssDNA, 10 min at 20 C; recombinant protein; protein details: His tag; label: 5'-32P; single-stranded DNA
T2 sequence (looked up, limits assumed): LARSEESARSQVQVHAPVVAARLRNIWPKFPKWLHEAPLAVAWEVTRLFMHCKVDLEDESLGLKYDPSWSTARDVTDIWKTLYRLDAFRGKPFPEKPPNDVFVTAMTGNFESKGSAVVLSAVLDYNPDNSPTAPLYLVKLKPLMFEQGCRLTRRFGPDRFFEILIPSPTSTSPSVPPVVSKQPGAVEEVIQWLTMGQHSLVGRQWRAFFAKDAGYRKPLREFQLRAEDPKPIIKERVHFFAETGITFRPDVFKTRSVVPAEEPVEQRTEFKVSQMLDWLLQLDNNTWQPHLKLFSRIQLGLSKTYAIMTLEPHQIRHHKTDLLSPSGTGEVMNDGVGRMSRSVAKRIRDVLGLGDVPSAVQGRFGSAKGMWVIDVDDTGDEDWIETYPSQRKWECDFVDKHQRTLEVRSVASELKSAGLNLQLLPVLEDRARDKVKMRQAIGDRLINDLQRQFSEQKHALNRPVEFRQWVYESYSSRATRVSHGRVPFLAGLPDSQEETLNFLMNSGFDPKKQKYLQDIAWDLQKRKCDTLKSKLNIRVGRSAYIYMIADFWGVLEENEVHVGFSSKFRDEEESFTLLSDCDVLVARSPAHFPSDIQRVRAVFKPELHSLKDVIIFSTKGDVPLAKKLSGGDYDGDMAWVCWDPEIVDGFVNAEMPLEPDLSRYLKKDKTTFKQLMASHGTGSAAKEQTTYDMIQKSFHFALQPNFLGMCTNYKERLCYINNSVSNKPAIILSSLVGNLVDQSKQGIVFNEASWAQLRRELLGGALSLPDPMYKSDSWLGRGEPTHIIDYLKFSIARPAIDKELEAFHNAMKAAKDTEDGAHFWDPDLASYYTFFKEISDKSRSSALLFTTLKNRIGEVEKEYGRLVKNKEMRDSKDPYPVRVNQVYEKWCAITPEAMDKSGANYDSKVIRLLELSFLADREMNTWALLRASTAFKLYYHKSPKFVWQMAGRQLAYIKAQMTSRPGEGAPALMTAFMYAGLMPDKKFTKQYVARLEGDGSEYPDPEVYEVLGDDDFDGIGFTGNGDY

[3] = target: T1, QDE-1Tte catalytic fragment (Thielavia terrestris); experiment: filter binding; details: 2 mM Mg2+, value derived from '1.7 uM, ~10-fold higher than the apparent Kd', exact Kd only in Fig. 5; Filter binding: 50 mM HEPES-NaOH pH 7.8, 0.1 mM EDTA, 2% (v/v) Triton X-100, 100 mM NH4OAc, 2 mM MgCl2, 1 uM protein, 0.03-10 uM ssDNA, 10 min at 20 C; recombinant protein; protein details: His tag, TEV cleavage site; label: 5'-32P; single-stranded DNA

Q: Does “CCTTAATTGTATAG [14-nt ssDNA oligonucleotide (EM)]” bind [1]?
A: binds

Q: What does the source list for “CTTACTTGTATGGACATT [18-nt ssDNA oligonucleotide]”?
A: binding result [2]: binds; Kd [3]: 170 nM
